{"source": "paper PMC7819943", "about": "“Rice protein-binding microarrays: a tool to detect cis-acting elements near promoter regions in rice”", "note": "This is one part of the list.", "data": [{"biological_target": "T1, OsSMF1 (Oryza sativa, UniProt Q6ZLB0 1-436)", "T1 sequence": "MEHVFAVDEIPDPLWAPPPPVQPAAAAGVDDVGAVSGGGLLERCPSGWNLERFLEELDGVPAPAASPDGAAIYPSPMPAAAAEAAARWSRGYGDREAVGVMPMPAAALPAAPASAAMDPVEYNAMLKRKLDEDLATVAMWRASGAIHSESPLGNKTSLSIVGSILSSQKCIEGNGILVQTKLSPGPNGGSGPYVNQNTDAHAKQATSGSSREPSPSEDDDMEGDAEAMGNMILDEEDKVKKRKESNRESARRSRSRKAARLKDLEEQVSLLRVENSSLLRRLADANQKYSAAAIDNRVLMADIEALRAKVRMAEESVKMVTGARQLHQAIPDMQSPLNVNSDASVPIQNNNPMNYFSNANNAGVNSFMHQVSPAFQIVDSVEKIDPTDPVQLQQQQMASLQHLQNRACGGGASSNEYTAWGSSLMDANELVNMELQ", "assay": "protein-binding microarray (RPBM); PBS, 2% BSA, 51.3 ng/ul salmon testes DNA, 50 uM zinc acetate, 200 nM TF, 25 C, 1 h; high values mean tight binding", "settings": "protein: recombinant; tags: N-terminal polyhistidine and DsRed monomer fusion (pET32a); chain copies: 2; label: CyDye5-dUTP incorporated in the synthesized complementary strand; 3' TTTTT single-stranded linker to array surface; dsDNA, one strand shown", "how_it_was_run": "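The binding signal is fluorescence intensity per array feature (arbitrary units). Readings came from an Axon 4000B scanner after a washed, 2% BSA-blocked, double-stranded custom Agilent array had been incubated for 1 h at 25 °C with 200 nM protein and 50 µM zinc acetate. The protein was a Ni–NTA-purified transcription factor fused N-terminally to polyhistidine and DsRed, expressed in E. coli BL21-CodonPlus.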", "values": [{"sequence": "CATCCCATGGCCGCCAGGTTATCCACATCATCCGCACCGGCGGAGTCACCTAGTGCAG", "binding signal": "6920 fluorescence intensity (a.u.)"}, {"sequence": "CCAACAAACCCAGCGCATCCTCATCGTCGTCATCAGGAGACGGAGTCACCTAGTGCAG", "binding signal": "3390 fluorescence intensity (a.u.)"}, {"sequence": "CCGCAGCCAATGATCCTGTAGAGGATGCCACCGTTGAAGACGGAGTCACCTAGTGCAG", "binding signal": "3420 fluorescence intensity (a.u.)"}, {"sequence": "GTCAGCCACAGCCCCGACGAGACGAGAGACCTCTCCTCCGCGGAGTCACCTAGTGCAG", "binding signal": "9960 fluorescence intensity (a.u.)"}, {"sequence": "TGTTCTAACAATAGCATTTCTTGCATTTAACTATGTTCCTCGGAGTCACCTAGTGCAG", "binding signal": "52900 fluorescence intensity (a.u.)"}, {"sequence": "TACTTAATCCCATCGTCCATCCGCCATCTCATCTGATCTCCGGAGTCACCTAGTGCAG", "binding signal": "3930 fluorescence intensity (a.u.)"}, {"sequence": "ACTCAGTGAGTCAAATCTGCCACATCAGTAGAAACCACTCCGGAGTCACCTAGTGCAG", "binding signal": "9900 fluorescence intensity (a.u.)"}, {"sequence": "GTATTGTGTTCTGTTTTAGCTGACGTGACGCCTACGTGGTCGGAGTCACCTAGTGCAG", "binding signal": "11400 fluorescence intensity (a.u.)"}, {"sequence": "CCCCAGCCGCTGCCGCTGCCATGTGCAATCATCCCCGCATCGGAGTCACCTAGTGCAG", "binding signal": "3510 fluorescence intensity (a.u.)"}, {"sequence": "TATGTAAGAGTAGTATATGAGACTCTGACACGTACGCACACGGAGTCACCTAGTGCAG", "binding signal": "7540 fluorescence intensity (a.u.)"}, {"sequence": "TGTGCAGTTTTGCTGTTTATGACTAGTTTACCTGTTGTCTCGGAGTCACCTAGTGCAG", "binding signal": "3250 fluorescence intensity (a.u.)"}, {"sequence": "GAACAATCTGCCACGTCACACAAAACACCCTCTGGGAGGACGGAGTCACCTAGTGCAG", "binding signal": "11200 fluorescence intensity (a.u.)"}, {"sequence": "TGTTCTTGCTACGCTGGGAGGGGAGGGGTGGCGCCGCGGCCGGAGTCACCTAGTGCAG", "binding signal": "4350 fluorescence intensity (a.u.)"}, {"sequence": "ATAAGGCCCGAGGCCCGAAGGCCCGGCCCATGGCACGCCTCGGAGTCACCTAGTGCAG", "binding signal": "3270 fluorescence intensity (a.u.)"}, {"sequence": "ATTGTTATATCTGTTGCTGGTAAGACCGTTGCCAGCGTGGCGGAGTCACCTAGTGCAG", "binding signal": "7900 fluorescence intensity (a.u.)"}, {"sequence": "ACGGGACGGCCGACGGCGACGGCGCGACAGCGGCGGGCATCGGAGTCACCTAGTGCAG", "binding signal": "28000 fluorescence intensity (a.u.)"}, {"sequence": "GCAGCAGCAGCTCATCTGCTGCTGACGCTGCCACCGGCACCGGAGTCACCTAGTGCAG", "binding signal": "7850 fluorescence intensity (a.u.)"}, {"sequence": "GTCGTCGTCTACTTCGCTGCCGCGTCCTCCATCCTCCATGCGGAGTCACCTAGTGCAG", "binding signal": "5180 fluorescence intensity (a.u.)"}, {"sequence": "CAATTTAATGCTACTTATCTCACATGATGTCTTGGATGTTCGGAGTCACCTAGTGCAG", "binding signal": "3980 fluorescence intensity (a.u.)"}, {"sequence": "CAATTCTACAATATGCCACTGAGTTTACCAAGTTATACAACGGAGTCACCTAGTGCAG", "binding signal": "4020 fluorescence intensity (a.u.)"}, {"sequence": "TGGTTGCAAGTGTGCATAGCTTGTCATTTTGTGACATGGGCGGAGTCACCTAGTGCAG", "binding signal": "3320 fluorescence intensity (a.u.)"}, {"sequence": "GTTGCCGATTTTGGCCTTGCCAAACTGTACCCACGGGATACGGAGTCACCTAGTGCAG", "binding signal": "3230 fluorescence intensity (a.u.)"}, {"sequence": "TGTTCTTGAGCTCACGCTCCACCTCCATGACATCTATGGACGGAGTCACCTAGTGCAG", "binding signal": "3530 fluorescence intensity (a.u.)"}, {"sequence": "CACCATATTAATATATTAGGAAGTGTACGTAAGCATCCATCGGAGTCACCTAGTGCAG", "binding signal": "3390 fluorescence intensity (a.u.)"}, {"sequence": "ACAAATTGTTTACGTGCGTCAGGCCGCCGCTGTGATGACACGGAGTCACCTAGTGCAG", "binding signal": "5690 fluorescence intensity (a.u.)"}, {"sequence": "GCAGCGGGCATGACAATTTTGTCCTGCCACGCCAGCAAGACGGAGTCACCTAGTGCAG", "binding signal": "16800 fluorescence intensity (a.u.)"}, {"sequence": "TCCCCAAGTCAGTCAATGCCATCACTGTCATCTGCTCTCACGGAGTCACCTAGTGCAG", "binding signal": "3200 fluorescence intensity (a.u.)"}, {"sequence": "CGCCACAAGCTTCCGGCCCCTAGATAGCCCGCGAAGCCAACGGAGTCACCTAGTGCAG", "binding signal": "4160 fluorescence intensity (a.u.)"}, {"sequence": "GCGCCGGCGAGGGTGAGGTCCGGAACGTGACGGTGGAGTCCGGAGTCACCTAGTGCAG", "binding signal": "4220 fluorescence intensity (a.u.)"}, {"sequence": "TGCCACGTCAGCGAAAACCACCATCTAAACCACCGCCATGCGGAGTCACCTAGTGCAG", "binding signal": "7960 fluorescence intensity (a.u.)"}, {"sequence": "TCCATGCAGGAAGTCAGCAACACCAGTTGATGACACCAACCGGAGTCACCTAGTGCAG", "binding signal": "3710 fluorescence intensity (a.u.)"}, {"sequence": "TATGTTATTATGGTGTAGGCAGACGTGTATTTAATTATTTCGGAGTCACCTAGTGCAG", "binding signal": "6150 fluorescence intensity (a.u.)"}, {"sequence": "TACGAACGTCCGTCTCTGCCGCACGTGACGGTGGAGCGCCCGGAGTCACCTAGTGCAG", "binding signal": "4550 fluorescence intensity (a.u.)"}, {"sequence": "CGTGGGCCCTACACTGACTCAGCCGCCACGTCAACAAAACCGGAGTCACCTAGTGCAG", "binding signal": "26000 fluorescence intensity (a.u.)"}, {"sequence": "AGACAGATTGGGATGAATCAAATGTCCAGCCTACGTGGACCGGAGTCACCTAGTGCAG", "binding signal": "13100 fluorescence intensity (a.u.)"}, {"sequence": "CGATCTCGCCGGCGACACCGCCGCCACCGCGCCTCCGCCTCGGAGTCACCTAGTGCAG", "binding signal": "3240 fluorescence intensity (a.u.)"}, {"sequence": "TTGTGATTTGTGGGATTAGTATCTCTGTCGGTGTCATATCCGGAGTCACCTAGTGCAG", "binding signal": "3630 fluorescence intensity (a.u.)"}, {"sequence": "ACTTTTCTCCGTCATCGATCTCTCTTGCCTTAAATGGACGCGGAGTCACCTAGTGCAG", "binding signal": "4020 fluorescence intensity (a.u.)"}, {"sequence": "CTCCGCCTCCACGTGTCACTGATCGGTGGGCCCAGGGACCCGGAGTCACCTAGTGCAG", "binding signal": "8880 fluorescence intensity (a.u.)"}, {"sequence": "AAGGTGCCAGGCCACGTGGGCGATTGTGTCTGCCTCAAGCCGGAGTCACCTAGTGCAG", "binding signal": "11100 fluorescence intensity (a.u.)"}, {"sequence": "TCGCCATCTCCACCTCCTCCATTCCACCTCCACTCCCGCTCGGAGTCACCTAGTGCAG", "binding signal": "3280 fluorescence intensity (a.u.)"}, {"sequence": "AACATTGAGAGATATTCTTGCATCCAATGATCCATCACTTCGGAGTCACCTAGTGCAG", "binding signal": "17100 fluorescence intensity (a.u.)"}]}]}
